The text below walks through data of the supplement of paper PMC7024190.

Where a name gives a salt, the structure may show the parent alone. Some of the results follow. Repeats in this data set agree poorly, so a single value says little.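 The cells were human embryonic kidney cells carrying a Renilla luciferase gene, driven by the HSV-TK promoter, on a plasmid put in briefly by transfection. This is the first-round screen of about ten thousand compounds, looking for ones that raise reporter output.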

This assay has as its system HEK 293FT. The assay can be described thus: log relative Renilla luciferase luminescence (reporter expression vs reference, reference not stated) (log (base not stated)); higher = higher recombinant reporter expression. The following applies: 10 µM; time after transfection 48 h.
Take `CCCNC(C)C(=O)Nc1ccccc1C` (configuration not stated) [prilocaine hydrochloride]: the log worked out at 0.156.

On to `CC(COc1ccccc1)N(CCCl)Cc1ccccc1` (configuration not stated) [phenoxybenzamine hydrochloride], for which the log came to 0.0507.

Consider `Nc1ncn([C@@H]2O[C@H](CO)[C@@H](O)[C@H]2O)c(=O)n1` [azacitidine], for which the log was -0.25.

Take `CC(=O)c1ccc(S(=O)(=O)NC(=O)NC2CCCCC2)cc1` [acetohexamide]: the log amounted to 0.256.

`O=C(NCc1ccccc1)OCCO` [buramate]: the log is -0.112.

As to `Cc1cc(=O)oc2cc(O)ccc12` [hymechrome], the log stood at 0.0299.

In the case of `Cc1nc2ccccc2n1Cc1ccc(Cl)cc1` [chlormidazole], the log is -1.43.

Consider `Cn1c(=O)c2nc[nH]c2n(C)c1=O` [theophylline], for which the log was found to be 0.0765.

Take `C=C1c2cccc(O)c2C(=O)C2=C(O)[C@]3(O)C(=O)C(C(N)=O)=C(O)[C@@H](N(C)C)[C@@H]3[C@@H](O)[C@H]12` [methacycline hydrochloride]: the log was -0.0128.

On to `c1ccc(C2CN3CCSC3=N2)cc1` (configuration not stated) [tetramizole hydrochloride], for which the log was -0.177.

For `COc1cc2cc3c4cc(OC)c(OC)cc4cc[n+]3c(C)c2cc1OC` [coralyne chloride], the log was -0.0533.

With `COc1cc(C(=O)O)cc(OC)c1O` [syringic acid], the log stood at 0.365.

For the compound `Cc1scc2c1N(C(=O)CN1CCN(C)CC1)c1ccccc1NC2=O` [telenzepine hydrochloride], the log was -0.0157.

In the case of `COC(=O)C[C@H]1C(C)(C)C(=O)[C@@H]2CC3=C4CC(=O)O[C@@H](c5ccoc5)[C@]4(C)CC[C@@H]3[C@@]1(C)C2=O` [mexicanolide], the log came out at 0.19.

For the compound `CC(=O)N[C@@H]([C@@H](O)[C@H](O)[C@H](O)CO)[C@@H](O)CC(=O)C(=O)O` [aceneuramic acid], the log was 0.0618.

As to `CC1(C)NC(=O)N(c2ccc([N+](=O)[O-])c(C(F)(F)F)c2)C1=O` [nilutamide], the log is -0.212.

Turning to `CC(C)(c1ccc(O)cc1)c1ccc(O)cc1` [bisphenol a], the log came to 0.0708.

As to `CCCCCCc1ccc(O)cc1O` [hexylresorcinol], the log amounted to 0.0853.

With `COC(=O)[C@@H]1[C@H]2C[C@H]3c4[nH]c5ccccc5c4CCN3C[C@@H]2CC[C@@H]1O` [yohimbine hydrochloride], the log is -1.47.

`C=C(C)[C@@H]1CC=C(C(=O)O)CC1` [perillic acid (-)]: the log was found to be 0.0543.

In the case of `C[C@]12C=CC(=O)C=C1CC[C@@H]1[C@@H]2[C@@H](O)C[C@@]2(C)[C@H]1CC[C@]2(O)C(=O)COC(=O)CCC(=O)O` [prednisolone hemisuccinate], the log was 0.0751.

For the compound `O=C1CCc2cc(OCCCCc3nnnn3C3CCCCC3)ccc2N1` [cilostazol], the log worked out at 0.0308.
